Values of other authors in patent US6605644B2, “Analgesic regimen” (Ortho-McNeil Pharmaceutical, Inc., priority 1999, dated 2003).
Counter-ions that a name gives are not always drawn.

Tested on: reuptake of norepinephrine
Settings: in vitro; cited from earlier work

COc1cccc(C2(O)CCCCC2CN(C)C)c1 (stereo not shown) [tramadol hydrochloride, 2-[(dimethylamino)methyl]-1-(3-methoxyphenyl)cyclohexanol]
inhibition of the reuptake of norepinephrine: weak inhibition
